In paper PMC13354802:
No constants are given. Whether binding was seen depends on the method and setting. In cells and extracts the contact can be indirect.

Sequences of proteins named here, by UniProt entry; tags and fusion partners are left off.
UniProt O00429: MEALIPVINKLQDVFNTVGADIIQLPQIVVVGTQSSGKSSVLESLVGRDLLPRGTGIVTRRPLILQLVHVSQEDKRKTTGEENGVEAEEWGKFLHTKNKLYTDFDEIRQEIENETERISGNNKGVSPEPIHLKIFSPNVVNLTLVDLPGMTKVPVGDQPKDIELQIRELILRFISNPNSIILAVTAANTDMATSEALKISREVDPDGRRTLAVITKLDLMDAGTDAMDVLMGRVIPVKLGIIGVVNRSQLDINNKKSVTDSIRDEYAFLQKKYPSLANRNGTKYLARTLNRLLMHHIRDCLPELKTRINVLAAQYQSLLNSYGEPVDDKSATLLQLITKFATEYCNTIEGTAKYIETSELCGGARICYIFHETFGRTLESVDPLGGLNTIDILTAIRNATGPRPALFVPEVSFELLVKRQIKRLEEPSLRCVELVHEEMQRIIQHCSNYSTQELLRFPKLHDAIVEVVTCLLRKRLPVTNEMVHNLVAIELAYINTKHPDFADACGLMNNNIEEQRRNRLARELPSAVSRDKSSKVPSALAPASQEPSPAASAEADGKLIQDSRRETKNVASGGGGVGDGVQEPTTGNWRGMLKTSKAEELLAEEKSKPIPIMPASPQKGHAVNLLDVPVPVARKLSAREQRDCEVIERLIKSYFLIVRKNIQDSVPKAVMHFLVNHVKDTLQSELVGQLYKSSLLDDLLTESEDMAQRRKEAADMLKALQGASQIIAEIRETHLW

Target: SidC, purified L. pneumophila effector (negative control) (L. pneumophila) (UniProt Q6RCR4)
Assay: pull-down; only the target purified

Question: Which binding does the source give for “dynamin-related protein 1 (Drp1), endogenous in HeLa cell lysate (from UniProt O00429 1-736) (enzyme)” here?
Answer: no binding
